# From US20070149525A1, “Methods of treating amyloidosis using aryl-cyclopropyl derivative aspartyl protease inhibitors” (priority 2005, published 2007)
# Details: CF-1 mice, 10 μmol/kg IV tail vein
# Protocol: In-life phase: Test compounds were administered to CF-1 (20-30 g) mice at 10 μmol/kg (4 to 7 mg/kg) following IV administration in the tail vein. Two time-points, 5 and 60 min, were collected post dose. Four mice were harvested for heparinized plasma and non-perfused brains at each time-point for a total of 8 mice per compound.
# Analytical phase: Samples were extracted and evaporated to dryness, then reconstituted and injected onto a reverse phase chromatographic column while monitoring the effluent with a triple quadrupole mass spectrometer. Quantitation was then performed with a 1/x^2 weighted fit of the least-squares regression from calibration standards prepared in parallel with the in vivo samples. The lower limit of quantitation (LOQ) is generally 1 ng/mL and 0.5 ng/g for the plasma and brain respectively. Data was reported in micromolar (μM) units. Brain levels were corrected for plasma volumes (16 μL/g).
compound,measurement,setting,value
CN1C(=O)CN=C(c2ccccc2)c2cc(Cl)ccc21 [Diazepam],brain concentration level at 5 min,5 min post dose,5481 nM
same,brain concentration level at 60 min,60 min post dose,176 nM
